These are yes or no findings as the source states them, for the method shown. Binding seen in cells or lysates may run through a third protein. Some entries that bind do so weakly or less than the wild type. For part of these data: Tags and fused reporters may be left off the sequences shown.

Test [1] has as its target T1, APC membrane recruitment 1 (Amer1), endogenous (human (endogenous in MGC-803)) (UniProt Q5JTC6).
T1 sequence: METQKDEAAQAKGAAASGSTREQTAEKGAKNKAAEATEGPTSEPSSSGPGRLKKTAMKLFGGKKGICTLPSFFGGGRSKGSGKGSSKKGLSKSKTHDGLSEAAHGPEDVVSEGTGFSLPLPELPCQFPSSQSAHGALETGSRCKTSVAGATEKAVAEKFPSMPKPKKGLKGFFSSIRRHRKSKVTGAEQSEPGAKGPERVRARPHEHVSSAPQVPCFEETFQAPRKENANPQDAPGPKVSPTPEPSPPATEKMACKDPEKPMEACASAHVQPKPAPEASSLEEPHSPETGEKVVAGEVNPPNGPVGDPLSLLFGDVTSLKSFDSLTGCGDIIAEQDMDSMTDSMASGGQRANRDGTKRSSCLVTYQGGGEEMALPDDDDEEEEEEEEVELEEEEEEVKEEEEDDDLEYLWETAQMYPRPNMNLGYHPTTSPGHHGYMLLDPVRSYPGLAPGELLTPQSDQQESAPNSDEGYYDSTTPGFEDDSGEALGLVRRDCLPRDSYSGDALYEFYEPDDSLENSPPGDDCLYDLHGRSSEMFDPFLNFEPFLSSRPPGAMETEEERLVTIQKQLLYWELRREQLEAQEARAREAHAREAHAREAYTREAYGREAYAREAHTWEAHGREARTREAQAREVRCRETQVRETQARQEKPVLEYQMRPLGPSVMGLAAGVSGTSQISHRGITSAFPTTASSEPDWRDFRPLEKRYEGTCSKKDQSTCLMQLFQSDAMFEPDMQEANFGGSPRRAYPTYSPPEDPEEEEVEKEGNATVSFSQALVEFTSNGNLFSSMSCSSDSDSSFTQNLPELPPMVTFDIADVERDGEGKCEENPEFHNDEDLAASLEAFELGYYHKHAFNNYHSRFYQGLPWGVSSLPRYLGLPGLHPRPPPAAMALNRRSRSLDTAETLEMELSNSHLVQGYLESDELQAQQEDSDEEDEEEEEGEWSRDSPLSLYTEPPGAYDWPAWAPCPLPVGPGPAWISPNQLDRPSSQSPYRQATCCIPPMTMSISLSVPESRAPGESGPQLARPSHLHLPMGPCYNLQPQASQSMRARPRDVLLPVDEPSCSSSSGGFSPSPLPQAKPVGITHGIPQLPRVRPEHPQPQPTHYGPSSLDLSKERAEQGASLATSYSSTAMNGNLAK
Briefly: co-IP; endogenous Amer1 and KIF23; protein extract in Co-IP buffer, antibody overnight at 4°C, protein A/G-agarose, Western blot. For orientation: A western blot detects proteins with antibodies after separation by electrophoresis.

The target of the next test is T2, GST-KIF23 (human) (UniProt Q02241).
T2 sequence: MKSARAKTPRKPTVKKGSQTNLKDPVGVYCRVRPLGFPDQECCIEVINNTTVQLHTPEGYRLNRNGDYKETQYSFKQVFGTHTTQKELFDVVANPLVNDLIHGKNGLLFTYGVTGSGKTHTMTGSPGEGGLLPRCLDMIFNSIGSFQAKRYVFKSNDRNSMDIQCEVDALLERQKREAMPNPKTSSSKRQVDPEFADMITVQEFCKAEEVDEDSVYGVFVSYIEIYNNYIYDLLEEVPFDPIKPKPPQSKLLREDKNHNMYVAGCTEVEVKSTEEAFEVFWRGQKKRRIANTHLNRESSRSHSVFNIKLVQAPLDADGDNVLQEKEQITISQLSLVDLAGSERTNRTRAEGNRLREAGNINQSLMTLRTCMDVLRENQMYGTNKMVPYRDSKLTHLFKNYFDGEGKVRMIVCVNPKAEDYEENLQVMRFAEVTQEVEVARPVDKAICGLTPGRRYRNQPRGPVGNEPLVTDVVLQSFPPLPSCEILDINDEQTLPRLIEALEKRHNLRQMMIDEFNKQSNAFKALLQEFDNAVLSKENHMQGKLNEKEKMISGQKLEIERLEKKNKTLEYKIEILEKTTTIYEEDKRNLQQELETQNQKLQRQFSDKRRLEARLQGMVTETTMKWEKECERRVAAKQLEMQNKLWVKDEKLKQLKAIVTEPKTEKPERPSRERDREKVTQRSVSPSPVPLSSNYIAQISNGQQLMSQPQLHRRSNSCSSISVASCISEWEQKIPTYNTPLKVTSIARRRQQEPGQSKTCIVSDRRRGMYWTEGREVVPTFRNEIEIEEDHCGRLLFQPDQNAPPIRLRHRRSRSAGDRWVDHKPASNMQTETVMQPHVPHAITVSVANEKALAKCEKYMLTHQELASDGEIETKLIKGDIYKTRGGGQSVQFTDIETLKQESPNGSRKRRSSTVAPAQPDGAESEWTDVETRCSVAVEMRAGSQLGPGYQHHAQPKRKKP
Briefly: pull-down; Pierce GST Protein Interaction Pull-Down Kit; GST-tagged bait from E. coli immobilised on the spin column, prey protein added, Western blot for KIF23 and Amer1; only the target purified.

B1: kinesin family member 23 (KIF23), endogenous (protein, UniProt Q02241 1-960)
chain: T2 sequence
For B1, the binding result in test [1] is on record as “binds”.

B2: Flag-Amer1 (exogenous Amer1), in MGC-803 cells (protein, UniProt Q5JTC6 1-1135)
chain: T1 sequence
On to B2, for which, in the test with GST-KIF23 (human), the binding result was “binds”.

B3: FLAG-tagged Amer1-FL (full-length Amer1), in 293T cells (protein, UniProt Q5JTC6 1-1135)
chain: T1 sequence
Consider B3, for which the binding result with GST-KIF23 (human) is on record as “binds”.

(Values after publication PMC7244035.)
